Assay results published in US20230085269A1.
These are yes or no findings as the source states them, for the method shown. Some binding calls cover weakened binding; strength is not graded here.

Sequences of proteins named here, by UniProt entry; tags and fusion partners are left off. Residues count along the entry.
UniProt P15941, residues 24-1255: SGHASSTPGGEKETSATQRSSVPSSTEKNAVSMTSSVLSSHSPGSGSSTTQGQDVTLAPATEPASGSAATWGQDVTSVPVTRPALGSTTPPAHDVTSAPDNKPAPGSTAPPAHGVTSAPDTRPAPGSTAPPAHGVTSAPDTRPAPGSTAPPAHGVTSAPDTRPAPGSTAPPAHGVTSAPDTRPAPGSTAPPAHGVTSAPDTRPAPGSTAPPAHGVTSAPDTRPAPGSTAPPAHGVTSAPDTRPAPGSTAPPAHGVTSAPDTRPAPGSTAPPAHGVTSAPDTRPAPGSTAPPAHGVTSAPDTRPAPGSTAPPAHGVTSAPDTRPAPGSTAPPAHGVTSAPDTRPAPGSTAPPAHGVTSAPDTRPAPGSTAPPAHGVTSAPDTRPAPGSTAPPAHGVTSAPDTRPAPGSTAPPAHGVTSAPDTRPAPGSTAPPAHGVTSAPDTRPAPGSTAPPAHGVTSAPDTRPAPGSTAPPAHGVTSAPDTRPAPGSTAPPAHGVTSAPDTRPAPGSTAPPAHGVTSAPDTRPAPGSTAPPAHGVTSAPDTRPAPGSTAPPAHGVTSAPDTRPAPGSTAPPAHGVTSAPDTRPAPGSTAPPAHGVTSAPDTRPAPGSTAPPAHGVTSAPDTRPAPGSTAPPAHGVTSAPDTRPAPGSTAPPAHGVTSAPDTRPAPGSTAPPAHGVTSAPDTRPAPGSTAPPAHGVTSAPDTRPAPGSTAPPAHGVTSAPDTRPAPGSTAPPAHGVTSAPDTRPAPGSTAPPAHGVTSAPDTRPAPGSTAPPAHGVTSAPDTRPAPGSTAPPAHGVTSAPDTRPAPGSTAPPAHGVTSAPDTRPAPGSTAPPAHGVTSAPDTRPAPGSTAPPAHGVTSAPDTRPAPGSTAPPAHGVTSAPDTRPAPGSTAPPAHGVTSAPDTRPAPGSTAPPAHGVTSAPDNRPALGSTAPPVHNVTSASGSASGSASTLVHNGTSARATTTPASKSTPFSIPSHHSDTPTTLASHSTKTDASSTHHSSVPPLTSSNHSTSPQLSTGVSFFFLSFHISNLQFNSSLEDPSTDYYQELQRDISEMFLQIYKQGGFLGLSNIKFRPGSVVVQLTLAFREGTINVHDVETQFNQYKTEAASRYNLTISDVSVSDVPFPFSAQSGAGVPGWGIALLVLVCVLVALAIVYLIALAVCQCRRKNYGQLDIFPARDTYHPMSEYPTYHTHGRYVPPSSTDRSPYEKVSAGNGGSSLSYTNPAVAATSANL

How the values were obtained:
[1] = biological target: MUC1-TM (full-length human transmembrane MUC1 protein) (human) (UniProt P15941); assay: immunohistochemistry, tissue microarrays
[2] = biological target: MUC1-TM (full-length human transmembrane MUC1 protein) (human) (UniProt P15941); assay: flow cytometry on cells expressing MUC1-TM
[3] = biological target: MUC1-TM (full-length human transmembrane MUC1 protein) (human) (UniProt P15941); assay: immunohistochemistry of lung, prostate and colon carcinomas
[4] = biological target: MUC1-TM (full-length human transmembrane MUC1 protein) (human) (UniProt P15941); assay: flow cytometry on human cancer cell lines Colo357, T47D, ZR75
[5] = biological target: MUC1-TM (full-length human transmembrane MUC1 protein) (human) (UniProt P15941); assay: immunohistochemistry, paraffin-embedded pancreatic and breast tissue
[6] = biological target: MUC1-TM (full-length human transmembrane MUC1 protein) (human) (UniProt P15941); assay: immunohistochemistry, paraffin-embedded normal and malignant pancreatic tissue
[7] = biological target: MUC1-TM (full-length human transmembrane MUC1 protein) (human) (UniProt P15941); assay: immunohistochemistry of pancreatic, breast, lung, prostate and colon carcinomas
[8] = biological target: MUC1-TM (full-length human transmembrane MUC1 protein) (human) (UniProt P15941); assay: flow cytometry on DA3-TM transfectants, DMB5F3 0.5 µg/ml; DA3-PAR cells negative
[9] = biological target: MUC1-TM (full-length human transmembrane MUC1 protein) (human) (UniProt P15941); assay: immunohistochemistry, paraffin embedded microarrays of lung, prostate, colon and breast carcinomas
[10] = biological target: MUC1-TM (full-length human transmembrane MUC1 protein) (human) (UniProt P15941); assay: immunohistochemistry on fresh frozen (FF) and paraffin embedded formaldehyde fixed (PEFF) tissue sections

Measured: binding

B1: DMB5F3 (antibody, V domains shown)
VH: DVQVQESGPDLVKPSQSLSLTCTVTGHSITRGSSWHWIRQFPGNKLEWMGYIHYGGGTSYNPSLKSRISITRDTSKNQFFLQLNSVTTEDTATFFCARYSYDITYRWFFDVWGAGTTVIVSS
VL: DILLTQSPAILSVSPGERVSFSCRASQNIGTSIHWYQQRKNGSPRLLIKYASESISGIPSRFSGSGSGTDFTLSINSVESEDMADYYCQQNNNWPLTFGAGTKLELK
binds: [1] | [2] | [3] | [4] | [5] | [6] | [7] | [8] | [9] | [10]
